This is one part of the list.
Compound: C#Cc1cccc(Nc2ncnc3cc(OCCOC)c(OCCOC)cc23)c1 [erlotinib]
Assay: log2 fold change, soluble protein after heating vs DMSO (PISA); higher = thermal stabilisation; K562 cells, 10 uM, 30 min; active = over 0.2 and 3.5 SD of the protein, either way, in both replicates (recomputed)
Summary of the method: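 K562 cells at 2×10^6 cells/mL were exposed to 10 μM compound for 30 min, then aliquots were heated for 3 min across 48°C-58°C, pooled, and extracted in PBS containing 0.5% NP-40 at 4°C. The supernatant after 21,000xg for 90 min was taken as soluble protein and measured by TMTpro 16plex LC-MS/MS with channel sums equalised. Thermal stability is reported relative to control samples, with values from duplicates. Fold changes are given on a log2 scale.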

Sequences of proteins named here, by UniProt entry; tags and fusion partners are left off. A change or cut given only in a name is not applied to a line headed by its entry.
UniProt Q96AT1: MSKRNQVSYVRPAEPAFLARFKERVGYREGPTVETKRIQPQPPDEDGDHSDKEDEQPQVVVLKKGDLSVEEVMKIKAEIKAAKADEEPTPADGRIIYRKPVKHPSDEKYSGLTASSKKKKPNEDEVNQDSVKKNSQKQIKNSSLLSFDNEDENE
UniProt Q8N371: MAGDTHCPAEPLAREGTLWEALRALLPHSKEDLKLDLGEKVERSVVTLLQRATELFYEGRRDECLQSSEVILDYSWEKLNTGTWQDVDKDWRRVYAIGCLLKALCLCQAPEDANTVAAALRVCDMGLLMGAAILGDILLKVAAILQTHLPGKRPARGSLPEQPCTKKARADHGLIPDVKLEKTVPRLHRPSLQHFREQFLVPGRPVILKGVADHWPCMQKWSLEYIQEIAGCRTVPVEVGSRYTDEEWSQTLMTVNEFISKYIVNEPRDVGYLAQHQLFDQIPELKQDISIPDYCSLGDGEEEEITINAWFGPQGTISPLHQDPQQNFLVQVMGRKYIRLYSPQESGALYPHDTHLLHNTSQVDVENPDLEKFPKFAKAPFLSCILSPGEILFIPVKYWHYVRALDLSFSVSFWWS
UniProt Q9NVR0: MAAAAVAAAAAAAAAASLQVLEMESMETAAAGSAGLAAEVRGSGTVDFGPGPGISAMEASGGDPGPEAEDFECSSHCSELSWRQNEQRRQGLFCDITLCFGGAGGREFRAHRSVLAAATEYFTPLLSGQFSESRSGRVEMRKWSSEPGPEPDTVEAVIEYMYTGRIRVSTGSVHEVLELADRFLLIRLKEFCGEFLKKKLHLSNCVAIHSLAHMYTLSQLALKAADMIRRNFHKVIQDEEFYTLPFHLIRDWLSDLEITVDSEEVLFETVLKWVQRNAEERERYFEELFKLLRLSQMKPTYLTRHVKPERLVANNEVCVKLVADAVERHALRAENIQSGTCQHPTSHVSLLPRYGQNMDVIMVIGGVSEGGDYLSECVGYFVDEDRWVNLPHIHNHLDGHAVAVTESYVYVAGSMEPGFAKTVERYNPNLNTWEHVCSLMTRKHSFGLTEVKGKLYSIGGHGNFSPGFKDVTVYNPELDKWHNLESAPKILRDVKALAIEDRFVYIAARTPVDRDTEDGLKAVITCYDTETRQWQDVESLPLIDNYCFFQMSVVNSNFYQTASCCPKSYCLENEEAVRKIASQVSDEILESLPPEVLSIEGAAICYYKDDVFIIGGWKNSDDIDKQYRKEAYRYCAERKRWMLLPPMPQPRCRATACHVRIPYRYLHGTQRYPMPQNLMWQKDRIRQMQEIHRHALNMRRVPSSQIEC
UniProt Q8N5M9: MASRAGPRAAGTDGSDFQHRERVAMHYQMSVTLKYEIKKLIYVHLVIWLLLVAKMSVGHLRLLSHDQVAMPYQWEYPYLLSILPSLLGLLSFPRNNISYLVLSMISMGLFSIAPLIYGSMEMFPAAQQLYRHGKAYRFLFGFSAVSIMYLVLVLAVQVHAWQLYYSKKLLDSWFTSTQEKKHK
UniProt Q9Y448: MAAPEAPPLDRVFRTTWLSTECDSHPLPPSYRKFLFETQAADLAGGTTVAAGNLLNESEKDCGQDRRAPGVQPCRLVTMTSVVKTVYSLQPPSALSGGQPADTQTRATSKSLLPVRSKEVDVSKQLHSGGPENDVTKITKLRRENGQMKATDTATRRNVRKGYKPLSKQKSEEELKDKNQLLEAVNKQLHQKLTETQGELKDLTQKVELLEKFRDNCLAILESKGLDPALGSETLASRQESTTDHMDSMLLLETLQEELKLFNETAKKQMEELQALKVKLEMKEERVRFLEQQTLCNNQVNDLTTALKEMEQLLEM
UniProt P52294, whole entry, looked up: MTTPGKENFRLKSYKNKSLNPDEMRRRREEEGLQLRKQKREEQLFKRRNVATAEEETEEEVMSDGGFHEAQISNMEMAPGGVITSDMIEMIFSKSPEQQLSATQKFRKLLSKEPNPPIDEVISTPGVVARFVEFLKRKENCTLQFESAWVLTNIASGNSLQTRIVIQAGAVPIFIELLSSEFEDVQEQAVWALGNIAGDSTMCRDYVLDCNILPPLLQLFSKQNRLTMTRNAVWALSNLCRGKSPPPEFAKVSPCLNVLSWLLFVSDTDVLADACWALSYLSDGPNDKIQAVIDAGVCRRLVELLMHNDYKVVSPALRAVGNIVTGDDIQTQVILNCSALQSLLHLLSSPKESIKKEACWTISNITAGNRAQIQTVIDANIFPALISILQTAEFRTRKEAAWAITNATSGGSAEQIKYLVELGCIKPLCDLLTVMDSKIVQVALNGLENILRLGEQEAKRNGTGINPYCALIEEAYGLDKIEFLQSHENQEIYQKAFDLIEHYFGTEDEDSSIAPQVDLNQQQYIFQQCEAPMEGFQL
UniProt Q9H910: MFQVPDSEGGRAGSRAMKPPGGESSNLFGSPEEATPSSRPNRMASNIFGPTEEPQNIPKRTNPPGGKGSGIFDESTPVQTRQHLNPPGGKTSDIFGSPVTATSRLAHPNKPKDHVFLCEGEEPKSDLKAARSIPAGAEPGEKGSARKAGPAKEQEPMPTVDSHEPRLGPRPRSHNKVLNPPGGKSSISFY
UniProt Q9BY66, whole entry, looked up: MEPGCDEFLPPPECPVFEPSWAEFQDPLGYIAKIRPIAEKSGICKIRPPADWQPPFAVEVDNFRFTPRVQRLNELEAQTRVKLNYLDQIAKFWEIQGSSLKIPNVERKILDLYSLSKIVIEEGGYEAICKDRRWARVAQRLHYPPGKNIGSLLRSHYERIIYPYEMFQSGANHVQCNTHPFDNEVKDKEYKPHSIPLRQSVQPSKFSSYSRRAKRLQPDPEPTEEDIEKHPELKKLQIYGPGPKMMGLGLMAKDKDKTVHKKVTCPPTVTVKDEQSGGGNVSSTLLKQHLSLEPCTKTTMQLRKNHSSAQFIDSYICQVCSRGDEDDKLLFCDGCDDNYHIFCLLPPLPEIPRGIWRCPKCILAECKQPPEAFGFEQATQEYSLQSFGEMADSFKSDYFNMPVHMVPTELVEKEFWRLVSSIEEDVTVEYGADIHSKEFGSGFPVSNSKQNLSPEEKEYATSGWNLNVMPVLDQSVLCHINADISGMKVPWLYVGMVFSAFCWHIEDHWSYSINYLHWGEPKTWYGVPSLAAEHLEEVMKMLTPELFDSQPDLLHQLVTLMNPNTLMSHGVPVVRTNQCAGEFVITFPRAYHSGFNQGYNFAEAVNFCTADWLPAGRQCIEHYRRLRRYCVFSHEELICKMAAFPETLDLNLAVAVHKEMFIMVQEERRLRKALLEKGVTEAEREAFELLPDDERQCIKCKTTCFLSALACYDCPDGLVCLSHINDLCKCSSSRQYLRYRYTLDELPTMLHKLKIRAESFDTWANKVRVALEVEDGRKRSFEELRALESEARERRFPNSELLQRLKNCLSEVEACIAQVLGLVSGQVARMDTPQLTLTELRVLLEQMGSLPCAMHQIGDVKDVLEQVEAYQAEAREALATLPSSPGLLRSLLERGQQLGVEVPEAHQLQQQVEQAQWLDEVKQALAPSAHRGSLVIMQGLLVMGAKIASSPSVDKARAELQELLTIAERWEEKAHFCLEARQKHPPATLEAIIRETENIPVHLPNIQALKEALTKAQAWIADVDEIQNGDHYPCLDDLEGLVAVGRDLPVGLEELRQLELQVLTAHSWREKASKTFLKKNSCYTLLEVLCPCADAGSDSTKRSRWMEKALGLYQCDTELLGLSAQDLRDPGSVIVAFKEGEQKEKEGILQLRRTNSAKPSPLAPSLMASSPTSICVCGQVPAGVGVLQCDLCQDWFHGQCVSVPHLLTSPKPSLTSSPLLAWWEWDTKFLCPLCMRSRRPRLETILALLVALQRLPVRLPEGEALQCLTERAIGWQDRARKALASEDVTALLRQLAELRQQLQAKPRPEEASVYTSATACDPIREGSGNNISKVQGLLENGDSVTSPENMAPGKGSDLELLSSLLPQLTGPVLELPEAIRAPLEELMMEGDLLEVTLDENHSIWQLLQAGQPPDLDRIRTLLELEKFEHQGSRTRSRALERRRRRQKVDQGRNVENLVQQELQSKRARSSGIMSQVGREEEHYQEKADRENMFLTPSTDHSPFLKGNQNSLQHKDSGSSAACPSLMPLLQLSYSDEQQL
UniProt P17275: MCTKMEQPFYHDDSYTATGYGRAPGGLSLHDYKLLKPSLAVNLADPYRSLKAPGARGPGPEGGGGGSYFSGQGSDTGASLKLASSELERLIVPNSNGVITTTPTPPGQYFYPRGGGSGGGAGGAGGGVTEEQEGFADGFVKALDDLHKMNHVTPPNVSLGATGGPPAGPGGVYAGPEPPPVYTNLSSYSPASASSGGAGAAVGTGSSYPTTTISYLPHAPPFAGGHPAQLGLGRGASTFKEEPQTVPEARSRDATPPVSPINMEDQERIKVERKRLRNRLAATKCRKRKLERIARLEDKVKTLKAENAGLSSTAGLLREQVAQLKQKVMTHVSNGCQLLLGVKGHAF
UniProt Q9NVX7: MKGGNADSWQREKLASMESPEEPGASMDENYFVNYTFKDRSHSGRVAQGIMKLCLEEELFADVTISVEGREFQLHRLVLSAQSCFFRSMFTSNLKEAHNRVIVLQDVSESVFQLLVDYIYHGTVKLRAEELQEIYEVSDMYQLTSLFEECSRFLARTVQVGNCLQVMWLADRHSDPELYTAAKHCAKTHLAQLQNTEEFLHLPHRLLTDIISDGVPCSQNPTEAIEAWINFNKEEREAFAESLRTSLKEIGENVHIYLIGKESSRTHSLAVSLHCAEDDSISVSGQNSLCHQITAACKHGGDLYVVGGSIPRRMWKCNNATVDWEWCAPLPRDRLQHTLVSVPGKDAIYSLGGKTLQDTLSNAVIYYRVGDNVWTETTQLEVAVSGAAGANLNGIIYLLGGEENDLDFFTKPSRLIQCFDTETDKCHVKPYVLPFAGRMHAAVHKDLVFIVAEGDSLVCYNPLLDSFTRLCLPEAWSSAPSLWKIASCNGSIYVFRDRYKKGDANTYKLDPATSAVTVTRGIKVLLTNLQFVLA
UniProt P23276: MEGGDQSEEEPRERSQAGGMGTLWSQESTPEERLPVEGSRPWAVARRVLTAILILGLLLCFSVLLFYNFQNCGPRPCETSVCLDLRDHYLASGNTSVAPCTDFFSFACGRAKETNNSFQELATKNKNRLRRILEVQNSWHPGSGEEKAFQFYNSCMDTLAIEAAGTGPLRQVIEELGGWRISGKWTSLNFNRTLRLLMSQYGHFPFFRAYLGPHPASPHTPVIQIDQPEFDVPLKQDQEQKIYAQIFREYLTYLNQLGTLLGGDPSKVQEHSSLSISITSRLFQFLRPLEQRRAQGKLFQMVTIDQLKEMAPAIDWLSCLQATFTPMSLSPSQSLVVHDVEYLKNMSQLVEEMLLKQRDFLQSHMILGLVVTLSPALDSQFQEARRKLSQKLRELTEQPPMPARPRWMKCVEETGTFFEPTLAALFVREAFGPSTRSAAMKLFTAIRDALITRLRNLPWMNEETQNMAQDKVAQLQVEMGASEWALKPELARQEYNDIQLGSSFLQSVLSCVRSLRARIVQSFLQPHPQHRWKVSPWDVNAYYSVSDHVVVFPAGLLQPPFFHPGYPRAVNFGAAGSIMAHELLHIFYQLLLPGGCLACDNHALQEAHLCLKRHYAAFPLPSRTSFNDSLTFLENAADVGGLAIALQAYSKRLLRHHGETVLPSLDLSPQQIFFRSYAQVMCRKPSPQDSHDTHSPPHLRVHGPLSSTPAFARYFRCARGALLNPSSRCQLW
UniProt Q96A73: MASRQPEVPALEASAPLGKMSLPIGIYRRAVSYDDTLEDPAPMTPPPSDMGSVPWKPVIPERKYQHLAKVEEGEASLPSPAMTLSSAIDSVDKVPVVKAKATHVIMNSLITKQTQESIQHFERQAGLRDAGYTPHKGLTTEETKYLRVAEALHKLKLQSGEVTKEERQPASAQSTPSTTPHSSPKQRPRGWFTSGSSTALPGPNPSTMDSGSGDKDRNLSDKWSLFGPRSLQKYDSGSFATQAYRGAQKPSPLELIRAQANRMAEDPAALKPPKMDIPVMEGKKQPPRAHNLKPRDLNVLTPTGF
UniProt O75449: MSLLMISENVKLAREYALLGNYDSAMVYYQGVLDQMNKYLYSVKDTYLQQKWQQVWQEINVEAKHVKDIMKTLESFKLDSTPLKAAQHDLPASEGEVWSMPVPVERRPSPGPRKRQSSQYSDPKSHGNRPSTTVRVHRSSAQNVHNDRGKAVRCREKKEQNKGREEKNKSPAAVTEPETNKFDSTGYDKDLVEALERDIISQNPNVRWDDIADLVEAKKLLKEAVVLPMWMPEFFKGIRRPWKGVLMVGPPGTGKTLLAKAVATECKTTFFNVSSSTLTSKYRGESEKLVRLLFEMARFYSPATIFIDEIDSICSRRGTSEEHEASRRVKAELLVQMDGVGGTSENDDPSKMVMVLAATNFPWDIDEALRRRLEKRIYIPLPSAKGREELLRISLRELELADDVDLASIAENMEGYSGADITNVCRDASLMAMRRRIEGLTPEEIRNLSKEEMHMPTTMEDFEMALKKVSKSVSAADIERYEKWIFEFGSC

log2 fold change, inactive:
KIAA1143 (UniProt Q96AT1) 0.006, KLC2 (UniProt Q9H0B6) 0.036, KDM8 isoform 3 (UniProt Q8N371) 0.008, KPNA2 (UniProt P52292) 0.011, KMT2D isoform 3 (UniProt O14686) 0.032, KATNB1 (UniProt Q9BVA0) -0.01, KIF13A (UniProt Q9H1H9) 0.065, KHDRBS1 (UniProt Q07666) -0.023, KHSRP (UniProt Q92945) 0.034, KPNB1 (UniProt Q14974) -0.001, KNTC1 (UniProt P50748) 0.102, KIAA0100 (UniProt Q14667) 0.231, KLHL11 (UniProt Q9NVR0) -0.009, JAGN1 (UniProt Q8N5M9) -0.003, KLC1 isoform 6 (UniProt Q07866) -0.016, IVNS1ABP (UniProt Q9Y6Y0) 0.001, KNSTRN (UniProt Q9Y448) 0.004, KIF1B isoform 4 (UniProt O60333) 0.031, KARS1 (UniProt Q15046) -0.048, KDM1A isoform 2 (UniProt O60341) 0.059, KCTD5 (UniProt Q9NXV2) 0.036, KPNA1 (UniProt P52294) -0.042, KBTBD2 (UniProt Q8IY47) 0.034, KIF3A (UniProt Q9Y496) -0.222, KSR1 (UniProt Q8IVT5) 0.082, KIAA1522 isoform 2 (UniProt Q9P206) 0.065, JPT2 isoform 3 (UniProt Q9H910) 0.002, KIAA0319L (UniProt Q8IZA0) -0.036, KDM5D isoform 3 (UniProt Q9BY66) -0.036, JMJD6 isoform 3 (UniProt Q6NYC1) -0.009, JUNB (UniProt P17275) 0.006, KBTBD4 isoform 2 (UniProt Q9NVX7) -0.048, KIF5A (UniProt Q12840) -0.022, KEL (UniProt P23276) 0.011, KIAA1191 (UniProt Q96A73) 0.018, JUND (UniProt P17535) -0.021, KIF2C (UniProt Q99661) 0.036, KDM5C (UniProt P41229) 0.003, KIAA2013 isoform 2 (UniProt Q8IYS2) -0.014, KATNA1 (UniProt O75449) -0.038
